From the supplement of paper PMC10849652
Some of the results follow.

Chains of the proteins cited; added tags and fusions are not shown. Lines headed by an entry give the natural chain unless they say otherwise; changes in a name come on top.
UniProt Q96DX7: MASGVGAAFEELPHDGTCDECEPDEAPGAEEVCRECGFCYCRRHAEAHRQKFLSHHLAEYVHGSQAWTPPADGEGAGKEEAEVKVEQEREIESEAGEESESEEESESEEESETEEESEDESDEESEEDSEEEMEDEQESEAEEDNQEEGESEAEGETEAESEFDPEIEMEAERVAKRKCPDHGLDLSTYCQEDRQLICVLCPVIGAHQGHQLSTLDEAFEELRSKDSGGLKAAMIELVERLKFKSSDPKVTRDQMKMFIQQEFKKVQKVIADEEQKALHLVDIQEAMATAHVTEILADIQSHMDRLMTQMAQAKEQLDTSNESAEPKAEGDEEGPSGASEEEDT
UniProt Q96Q05, whole entry, looked up: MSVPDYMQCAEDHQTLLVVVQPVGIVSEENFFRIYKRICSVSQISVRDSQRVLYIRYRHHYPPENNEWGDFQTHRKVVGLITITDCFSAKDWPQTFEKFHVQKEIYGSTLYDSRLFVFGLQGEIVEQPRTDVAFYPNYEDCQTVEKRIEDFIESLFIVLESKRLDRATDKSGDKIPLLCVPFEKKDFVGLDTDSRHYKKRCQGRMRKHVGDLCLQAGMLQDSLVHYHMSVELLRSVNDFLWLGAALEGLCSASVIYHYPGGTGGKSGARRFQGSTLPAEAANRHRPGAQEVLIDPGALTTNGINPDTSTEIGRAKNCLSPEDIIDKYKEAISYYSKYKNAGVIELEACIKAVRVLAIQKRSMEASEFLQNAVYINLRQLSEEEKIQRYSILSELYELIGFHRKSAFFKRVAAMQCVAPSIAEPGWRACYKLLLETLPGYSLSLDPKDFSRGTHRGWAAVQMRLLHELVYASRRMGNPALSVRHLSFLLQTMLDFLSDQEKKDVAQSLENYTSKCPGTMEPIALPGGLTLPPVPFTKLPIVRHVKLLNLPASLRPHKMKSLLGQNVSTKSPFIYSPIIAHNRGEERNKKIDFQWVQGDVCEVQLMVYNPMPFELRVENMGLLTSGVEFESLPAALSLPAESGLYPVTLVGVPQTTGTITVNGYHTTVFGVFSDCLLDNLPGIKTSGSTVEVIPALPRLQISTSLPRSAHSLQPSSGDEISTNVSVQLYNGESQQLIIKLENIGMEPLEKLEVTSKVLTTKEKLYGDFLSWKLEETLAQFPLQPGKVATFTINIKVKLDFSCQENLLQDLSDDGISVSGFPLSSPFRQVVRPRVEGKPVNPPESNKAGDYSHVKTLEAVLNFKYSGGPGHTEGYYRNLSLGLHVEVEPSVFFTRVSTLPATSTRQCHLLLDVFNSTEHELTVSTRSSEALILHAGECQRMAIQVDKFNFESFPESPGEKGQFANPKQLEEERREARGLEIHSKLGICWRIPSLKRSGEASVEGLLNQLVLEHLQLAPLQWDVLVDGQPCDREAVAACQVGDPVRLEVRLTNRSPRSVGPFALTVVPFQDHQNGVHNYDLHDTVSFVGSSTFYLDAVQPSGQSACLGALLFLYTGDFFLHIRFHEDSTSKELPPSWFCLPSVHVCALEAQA
UniProt Q15654: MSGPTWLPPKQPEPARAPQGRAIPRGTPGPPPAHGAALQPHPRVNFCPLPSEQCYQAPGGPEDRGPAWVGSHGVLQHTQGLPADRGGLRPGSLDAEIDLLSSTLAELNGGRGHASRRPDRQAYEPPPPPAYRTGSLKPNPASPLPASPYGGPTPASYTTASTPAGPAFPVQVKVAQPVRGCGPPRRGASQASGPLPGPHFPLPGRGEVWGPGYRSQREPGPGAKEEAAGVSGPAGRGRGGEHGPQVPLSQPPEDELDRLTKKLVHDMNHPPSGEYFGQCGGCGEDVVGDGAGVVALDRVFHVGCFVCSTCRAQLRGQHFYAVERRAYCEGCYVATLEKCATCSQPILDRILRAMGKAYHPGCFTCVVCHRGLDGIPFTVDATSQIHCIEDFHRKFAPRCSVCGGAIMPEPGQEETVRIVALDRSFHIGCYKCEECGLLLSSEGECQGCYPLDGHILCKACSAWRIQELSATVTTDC
UniProt Q9Y5R8, whole entry, looked up: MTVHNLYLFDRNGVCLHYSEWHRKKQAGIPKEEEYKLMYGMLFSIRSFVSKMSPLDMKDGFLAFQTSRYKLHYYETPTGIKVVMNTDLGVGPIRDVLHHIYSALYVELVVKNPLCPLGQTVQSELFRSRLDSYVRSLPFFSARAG
UniProt Q12815: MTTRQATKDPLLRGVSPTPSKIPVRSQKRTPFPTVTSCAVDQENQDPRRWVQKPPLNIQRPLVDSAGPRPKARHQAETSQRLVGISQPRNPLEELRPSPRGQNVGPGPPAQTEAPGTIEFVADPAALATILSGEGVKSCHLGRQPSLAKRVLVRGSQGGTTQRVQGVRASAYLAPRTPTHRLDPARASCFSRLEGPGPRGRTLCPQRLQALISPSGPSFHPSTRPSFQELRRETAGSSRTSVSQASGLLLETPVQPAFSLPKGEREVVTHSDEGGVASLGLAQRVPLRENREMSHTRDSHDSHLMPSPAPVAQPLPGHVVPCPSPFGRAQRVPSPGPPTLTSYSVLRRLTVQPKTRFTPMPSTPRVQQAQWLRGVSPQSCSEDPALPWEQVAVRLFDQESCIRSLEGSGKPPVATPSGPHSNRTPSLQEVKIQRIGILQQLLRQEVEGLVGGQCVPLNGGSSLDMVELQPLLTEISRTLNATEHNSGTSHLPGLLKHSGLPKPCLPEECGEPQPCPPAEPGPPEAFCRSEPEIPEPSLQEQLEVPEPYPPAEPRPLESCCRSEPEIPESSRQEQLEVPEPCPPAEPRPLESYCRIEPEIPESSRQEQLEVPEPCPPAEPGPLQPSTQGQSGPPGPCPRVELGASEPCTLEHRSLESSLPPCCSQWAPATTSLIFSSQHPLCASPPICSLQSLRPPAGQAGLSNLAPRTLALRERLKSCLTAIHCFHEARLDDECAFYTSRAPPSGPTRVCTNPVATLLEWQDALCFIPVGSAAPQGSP
UniProt P30536, whole entry, looked up: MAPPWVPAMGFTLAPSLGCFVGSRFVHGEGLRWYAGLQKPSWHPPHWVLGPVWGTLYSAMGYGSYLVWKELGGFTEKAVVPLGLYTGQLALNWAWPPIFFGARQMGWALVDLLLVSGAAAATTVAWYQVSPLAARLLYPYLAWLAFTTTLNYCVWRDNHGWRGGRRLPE
UniProt Q12931: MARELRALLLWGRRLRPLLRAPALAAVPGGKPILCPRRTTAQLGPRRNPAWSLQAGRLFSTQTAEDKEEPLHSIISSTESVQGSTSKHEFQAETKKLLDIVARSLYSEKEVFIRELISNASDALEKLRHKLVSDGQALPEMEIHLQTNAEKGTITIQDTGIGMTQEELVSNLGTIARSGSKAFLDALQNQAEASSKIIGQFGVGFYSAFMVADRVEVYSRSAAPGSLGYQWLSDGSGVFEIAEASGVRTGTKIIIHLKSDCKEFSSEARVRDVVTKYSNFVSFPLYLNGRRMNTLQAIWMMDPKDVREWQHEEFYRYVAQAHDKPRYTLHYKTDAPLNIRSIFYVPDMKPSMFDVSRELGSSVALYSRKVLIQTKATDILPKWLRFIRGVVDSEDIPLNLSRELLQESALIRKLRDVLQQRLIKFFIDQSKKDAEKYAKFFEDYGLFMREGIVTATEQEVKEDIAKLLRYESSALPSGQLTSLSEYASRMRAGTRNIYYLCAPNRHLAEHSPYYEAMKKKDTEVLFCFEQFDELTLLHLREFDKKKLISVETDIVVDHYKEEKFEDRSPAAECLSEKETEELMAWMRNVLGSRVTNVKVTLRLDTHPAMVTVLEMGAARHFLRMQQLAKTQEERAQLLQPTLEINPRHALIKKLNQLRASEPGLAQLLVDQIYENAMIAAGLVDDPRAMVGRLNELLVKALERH
UniProt O43156, whole entry, looked up: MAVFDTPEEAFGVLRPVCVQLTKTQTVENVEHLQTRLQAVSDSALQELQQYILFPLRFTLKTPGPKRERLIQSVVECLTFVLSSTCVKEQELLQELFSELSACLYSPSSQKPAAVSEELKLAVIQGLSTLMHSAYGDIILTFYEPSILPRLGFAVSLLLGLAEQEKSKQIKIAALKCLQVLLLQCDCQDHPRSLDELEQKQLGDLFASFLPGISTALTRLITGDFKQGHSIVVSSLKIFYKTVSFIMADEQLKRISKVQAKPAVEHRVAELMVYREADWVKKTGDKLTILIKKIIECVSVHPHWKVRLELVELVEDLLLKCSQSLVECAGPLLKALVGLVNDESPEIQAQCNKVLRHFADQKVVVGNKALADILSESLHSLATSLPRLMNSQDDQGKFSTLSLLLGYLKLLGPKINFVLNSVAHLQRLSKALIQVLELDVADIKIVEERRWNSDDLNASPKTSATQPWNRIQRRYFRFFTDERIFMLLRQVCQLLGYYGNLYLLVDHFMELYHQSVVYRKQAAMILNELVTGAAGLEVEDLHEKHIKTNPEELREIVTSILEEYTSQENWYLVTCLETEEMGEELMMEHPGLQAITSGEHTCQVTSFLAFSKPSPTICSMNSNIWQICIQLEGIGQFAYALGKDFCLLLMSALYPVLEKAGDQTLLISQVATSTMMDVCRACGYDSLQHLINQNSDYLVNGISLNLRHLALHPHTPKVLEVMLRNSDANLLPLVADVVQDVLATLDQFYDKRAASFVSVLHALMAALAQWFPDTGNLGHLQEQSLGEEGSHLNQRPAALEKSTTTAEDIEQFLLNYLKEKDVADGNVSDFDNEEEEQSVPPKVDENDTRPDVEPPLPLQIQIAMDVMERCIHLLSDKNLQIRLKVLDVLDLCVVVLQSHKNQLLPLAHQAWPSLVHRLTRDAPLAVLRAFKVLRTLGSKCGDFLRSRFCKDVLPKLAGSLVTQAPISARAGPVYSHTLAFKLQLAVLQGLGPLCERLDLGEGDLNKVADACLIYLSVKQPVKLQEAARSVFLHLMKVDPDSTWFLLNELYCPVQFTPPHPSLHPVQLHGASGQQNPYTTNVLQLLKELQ
UniProt Q9C037: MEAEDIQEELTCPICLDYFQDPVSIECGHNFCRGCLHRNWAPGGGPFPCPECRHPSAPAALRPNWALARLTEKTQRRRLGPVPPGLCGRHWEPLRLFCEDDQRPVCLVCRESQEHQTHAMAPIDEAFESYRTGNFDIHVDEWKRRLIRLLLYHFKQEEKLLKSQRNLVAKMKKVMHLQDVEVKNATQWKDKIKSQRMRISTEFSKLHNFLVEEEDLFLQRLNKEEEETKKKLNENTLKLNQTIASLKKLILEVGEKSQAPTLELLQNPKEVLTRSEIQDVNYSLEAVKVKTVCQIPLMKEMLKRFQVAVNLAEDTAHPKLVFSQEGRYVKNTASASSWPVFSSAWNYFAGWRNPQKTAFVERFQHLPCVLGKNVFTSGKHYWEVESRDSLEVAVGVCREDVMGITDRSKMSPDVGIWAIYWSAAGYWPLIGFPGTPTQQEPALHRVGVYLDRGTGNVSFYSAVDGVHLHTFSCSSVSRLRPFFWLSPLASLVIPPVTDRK
UniProt Q99816: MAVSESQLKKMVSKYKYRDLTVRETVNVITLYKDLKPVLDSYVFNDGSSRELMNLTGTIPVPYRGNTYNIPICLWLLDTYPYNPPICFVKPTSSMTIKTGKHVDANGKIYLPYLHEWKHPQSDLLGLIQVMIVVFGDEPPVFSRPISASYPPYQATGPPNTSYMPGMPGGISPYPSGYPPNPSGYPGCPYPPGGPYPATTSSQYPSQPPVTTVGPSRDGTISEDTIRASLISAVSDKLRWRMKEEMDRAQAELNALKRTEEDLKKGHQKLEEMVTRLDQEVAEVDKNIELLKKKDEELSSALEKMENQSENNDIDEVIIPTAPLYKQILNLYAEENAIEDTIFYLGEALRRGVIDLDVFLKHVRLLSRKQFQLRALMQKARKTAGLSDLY
UniProt Q12933: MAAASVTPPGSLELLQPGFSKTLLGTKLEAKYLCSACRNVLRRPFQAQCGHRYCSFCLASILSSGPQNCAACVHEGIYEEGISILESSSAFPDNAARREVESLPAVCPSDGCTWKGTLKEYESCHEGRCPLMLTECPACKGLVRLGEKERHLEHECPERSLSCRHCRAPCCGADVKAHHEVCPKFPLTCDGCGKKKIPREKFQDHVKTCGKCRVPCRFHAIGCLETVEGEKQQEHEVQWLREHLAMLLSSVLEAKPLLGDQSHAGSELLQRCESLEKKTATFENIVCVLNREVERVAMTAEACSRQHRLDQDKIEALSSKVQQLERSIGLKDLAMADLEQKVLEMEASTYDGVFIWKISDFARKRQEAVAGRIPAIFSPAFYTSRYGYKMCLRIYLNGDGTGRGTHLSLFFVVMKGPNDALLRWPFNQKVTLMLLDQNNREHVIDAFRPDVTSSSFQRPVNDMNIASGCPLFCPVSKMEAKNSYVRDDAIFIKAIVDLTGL
UniProt Q99598: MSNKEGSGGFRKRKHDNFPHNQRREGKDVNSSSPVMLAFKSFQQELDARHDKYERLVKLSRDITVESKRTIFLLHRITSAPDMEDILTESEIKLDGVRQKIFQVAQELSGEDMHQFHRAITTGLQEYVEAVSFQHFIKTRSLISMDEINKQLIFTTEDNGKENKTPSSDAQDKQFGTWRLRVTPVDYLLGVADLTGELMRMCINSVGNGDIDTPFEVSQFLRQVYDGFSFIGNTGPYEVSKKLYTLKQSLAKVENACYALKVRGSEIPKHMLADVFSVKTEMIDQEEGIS

Columns and labels:
Experiment in all cases: log2 fold change, soluble protein after heating vs DMSO (PISA); higher = thermal stabilisation; K562 lysate, 10 uM; active = over 0.2 and 3.5 SD of the protein, either way, in both replicates (recomputed)
alvocidib = compound: CN1CC[C@H](c2c(O)cc(O)c3c(=O)cc(-c4ccccc4Cl)oc23)[C@H](O)C1 [alvocidib]
Method in brief: (§1)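 A 30 min treatment with 10 μM compound was applied to crude K562 extract at 1 mg/mL protein in PBS pH 7.4 with 1 mM MgCl2. Heating for 3 min spanned 48°C-58°C, after which aliquots were pooled, adjusted to 0.5% NP-40 at 4°C and spun at 21,000xg for 90 min. TMTpro 16plex LC-MS/MS of the supernatant, with channel sums equalised, gave values recorded as log-two fold change in thermal stability against solvent controls, from duplicates.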

Tubastatin A = compound: CN1CCc2c(c3ccccc3n2Cc2ccc(C(=O)NO)cc2)C1 [Tubastatin A]
Method in brief: as §1

[1] = compound: CNC(=O)C1=CC=CC=C1NC2=NC(=NC=C2Cl)NC3=C(C=C(C=C3)N4CCOCC4)OC
Method in brief: as §1

defactinib = compound: CNC(=O)c1ccc(Nc2ncc(C(F)(F)F)c(NCc3nccnc3N(C)S(C)(=O)=O)n2)cc1 [defactinib]
Method in brief: as §1

[2] = compound: CNc1nc(-c2ccc3c(N)n[nH]c3c2)cc(N2C[C@@H](C(=O)NC3CCCCC3)CC[C@H]2C)n1
Method in brief: as §1

encorafenib = compound: COC(=O)N[C@@H](C)CNc1nccc(-c2cn(C(C)C)nc2-c2cc(Cl)cc(NS(C)(=O)=O)c2F)n1 [encorafenib]
Method in brief: as §1

[3] = compound: COC(=O)[C@H](CCSC)NC(=O)C1=C(C=C(C=C1)NC[C@H](CS)N)C2=CC=CC=C2
Method in brief: as §1

alisertib = compound: COc1cc(Nc2ncc3c(n2)-c2ccc(Cl)cc2C(c2c(F)cccc2OC)=NC3)ccc1C(=O)O [alisertib]
Method in brief: as §1

[4] = compound: COc1cc2nc(-c3cc(F)ccc3O)nc(N[C@@H]3CNC[C@H]3C(C)(C)O)c2cc1OC
Method in brief: as §1

gefitinib = compound: COc1cc2ncnc(Nc3ccc(F)c(Cl)c3)c2cc1OCCCN1CCOCC1 [gefitinib]
Method in brief: as §1

lapatinib = compound: CS(=O)(=O)CCNCc1ccc(-c2ccc3ncnc(Nc4ccc(OCc5cccc(F)c5)c(Cl)c4)c3c2)o1 [lapatinib]
Method in brief: as §1

pictilisib = compound: CS(=O)(=O)N1CCN(Cc2cc3nc(-c4cccc5[nH]ncc45)nc(N4CCOCC4)c3s2)CC1 [pictilisib]
Method in brief: as §1

crizotinib = compound: C[C@@H](Oc1cc(-c2cnn(C3CCNCC3)c2)cnc1N)c1c(Cl)ccc(F)c1Cl [crizotinib]
Method in brief: as §1

[5] = compound: C[C@H](C1=CC=C(C=C1)C(=O)NC2=C3C=CNC3=NC=C2)N
Method in brief: as §1

duvelisib = compound: C[C@H](Nc1ncnc2nc[nH]c12)c1cc2cccc(Cl)c2c(=O)n1-c1ccccc1 [duvelisib]
Method in brief: as §1

gandotinib = compound: Cc1cc(Nc2cc(CN3CCOCC3)c3nc(C)c(Cc4ccc(Cl)cc4F)n3n2)n[nH]1 [gandotinib]
Method in brief: as §1

tozasertib = compound: Cc1cc(Nc2cc(N3CCN(C)CC3)nc(Sc3ccc(NC(=O)C4CC4)cc3)n2)n[nH]1 [tozasertib]
Method in brief: as §1

doramapimod = compound: Cc1ccc(-n2nc(C(C)(C)C)cc2NC(=O)Nc2ccc(OCCN3CCOCC3)c3ccccc23)cc1 [doramapimod]
Method in brief: as §1

bafetinib = compound: Cc1ccc(NC(=O)c2ccc(CN3CC[C@H](N(C)C)C3)c(C(F)(F)F)c2)cc1Nc1nccc(-c2cncnc2)n1 [bafetinib]
Method in brief: as §1

[6] = compound: Cc1cccc(CC(=O)N2CCc3c2ccc(-c2cn(C)c4ncnc(N)c24)c3F)n1
Method in brief: as §1

Target	log2 fold change (alvocidib)	log2 fold change (Tubastatin A)	log2 fold change [1]	log2 fold change (defactinib)	log2 fold change [2]	log2 fold change (encorafenib)	log2 fold change [3]	log2 fold change (alisertib)	log2 fold change [4]	log2 fold change (gefitinib)	log2 fold change (lapatinib)	log2 fold change (pictilisib)	log2 fold change (crizotinib)	log2 fold change [5]	log2 fold change (duvelisib)	log2 fold change (gandotinib)	log2 fold change (tozasertib)	log2 fold change (doramapimod)	log2 fold change (bafetinib)	log2 fold change [6]
TRIM44 (UniProt Q96DX7)	inactive: 0	inactive: -0.013	inactive: 0.057	inactive: -0.045	inactive: 0.04	inactive: -0.047	inactive: -0.034	inactive: 0.041	inactive: -0.121	inactive: 0.088	active: -0.242	inactive: -0.11	inactive: -0.018	inactive: 0.04	inactive: 0.007	inactive: 0.01	inactive: -0.04	inactive: 0.013	inactive: 0.031	inactive: -0.075
TRAPPC9 isoform 2 (UniProt Q96Q05)	inactive: -0.017	inactive: -0.128	inactive: 0.002	inactive: -0.011	inactive: -0.075	inactive: 0.022	inactive: -0.015	inactive: -0.036	inactive: 0.021	inactive: -0.017	inactive: -0.02	inactive: 0.012	inactive: -0.084	inactive: -0.053	inactive: -0.038	inactive: -0.037	inactive: 0.037	inactive: 0.029	inactive: -0.026	inactive: 0.021
TRIP6 (UniProt Q15654)	inactive: -0.004	inactive: -0.003	inactive: 0.034	inactive: -0.019	inactive: 0.076	inactive: -0.009	inactive: -0.104	inactive: 0.005	inactive: -0.014	inactive: -0.048	inactive: -0.006	inactive: 0.01	inactive: 0.018	inactive: -0.036	inactive: 0.013	inactive: 0.041	inactive: -0.027	inactive: 0.003	inactive: -0.034	inactive: -0.007
TRAPPC1 (UniProt Q9Y5R8)	inactive: -0.009	inactive: 0	inactive: -0.011	inactive: 0.062	inactive: 0	inactive: 0.047	inactive: -0.012	inactive: -0.046	inactive: 0.022	inactive: -0.005	inactive: 0.03	inactive: -0.009	inactive: -0.054	inactive: 0.01	inactive: -0.041	inactive: 0.057	inactive: -0.054	inactive: 0.102	inactive: 0.007	inactive: 0.019
TRMT12 (UniProt Q53H54)	inactive: -0.022	inactive: -0.106	inactive: -0.113	inactive: -0.058	inactive: 0.007	inactive: 0.041	inactive: 0.088	inactive: -0.031	inactive: 0.018	inactive: 0.123	inactive: 0.064	inactive: -0.02	inactive: -0.03	inactive: -0.289	inactive: 0.055	inactive: -0.054	inactive: -0.021	inactive: 0.059	inactive: -0.021	inactive: 0.14
TROAP (UniProt Q12815)	inactive: -0.042	inactive: -0.043	inactive: 0.022	inactive: 0.021	inactive: 0.076	inactive: -0.193	inactive: 0.217	inactive: -0.09	inactive: -0.171	inactive: -0.015	inactive: 0.001	inactive: -0.088	inactive: 0.038	inactive: -0.065	inactive: -0.095	inactive: 0.072	inactive: -0.009	inactive: -0.008	inactive: -0.1	inactive: 0.004
TSPO (UniProt P30536)	inactive: -0.026	inactive: -0.091	inactive: -0.012	inactive: 0.001	inactive: 0.05	inactive: 0.005	inactive: 0.051	inactive: -0.005	inactive: -0.017	inactive: 0.05	inactive: -0.019	inactive: 0.021	inactive: 0.014	inactive: -0.142	inactive: 0	inactive: 0.096	inactive: -0.086	inactive: 0.089	inactive: -0.057	inactive: 0.012
TRNAU1AP (UniProt Q9NX07)	inactive: -0.059	inactive: -0.08	inactive: 0.015	inactive: -0.192	inactive: -0.039	inactive: 0.045	inactive: 0.034	inactive: 0.098	inactive: -0.007	inactive: -0.019	inactive: 0	inactive: -0.091	inactive: -0.019	inactive: -0.221	inactive: -0.058	inactive: 0.042	inactive: -0.018	inactive: 0.031	inactive: -0.001	inactive: 0.061
TRAP1 (UniProt Q12931)	inactive: 0.018	inactive: 0.006	inactive: -0.029	inactive: -0.016	inactive: -0.079	inactive: -0.018	inactive: -0.005	inactive: 0.01	inactive: -0.003	inactive: -0.008	inactive: -0.024	inactive: -0.009	inactive: 0.041	inactive: 0.006	inactive: -0.009	inactive: -0.028	inactive: 0.044	inactive: -0.035	inactive: -0.014	inactive: -0.022
TRAPPC4 (UniProt Q9Y296)	inactive: 0.007	inactive: -0.011	inactive: 0.012	inactive: -0.019	inactive: -0.031	inactive: 0.048	inactive: 0.011	inactive: -0.029	inactive: -0.025	inactive: 0.017	inactive: 0.009	inactive: -0.042	inactive: -0.009	inactive: 0.047	inactive: -0.008	inactive: -0.173	inactive: 0.044	inactive: 0.023	inactive: 0.042	inactive: -0.131
TTI1 (UniProt O43156)	inactive: 0	inactive: -0.163	inactive: 0.015	inactive: 0.022	inactive: -0.035	inactive: 0.022	inactive: 0.026	inactive: -0.013	inactive: -0.011	inactive: -0.016	inactive: -0.011	inactive: -0.044	inactive: -0.11	inactive: -0.075	inactive: -0.005	inactive: -0.113	inactive: 0.028	inactive: 0.045	inactive: -0.016	inactive: 0.056
TRIM4 (UniProt Q9C037)	inactive: -0.02	inactive: -0.18	inactive: 0.282	inactive: -0.112	inactive: -0.013	inactive: 0.041	inactive: -0.049	inactive: 0.014	inactive: 0.048	inactive: -0.025	inactive: -0.061	inactive: 0.042	inactive: -0.076	inactive: 0.049	inactive: -0.049	inactive: -0.063	inactive: -0.004	inactive: -0.017	inactive: -0.215	inactive: 0.253
TSG101 (UniProt Q99816)	inactive: -0.077	inactive: -0.02	inactive: -0.011	inactive: -0.023	inactive: -0.056	inactive: 0.012	inactive: -0.071	inactive: -0.013	inactive: 0.017	inactive: -0.003	inactive: 0.003	inactive: -0.011	inactive: 0.021	inactive: -0.195	inactive: -0.032	inactive: 0.068	inactive: 0.002	inactive: 0.007	inactive: -0.019	inactive: 0.115
TRAF2 isoform 2 (UniProt Q12933)	inactive: -0.006	inactive: -0.006	inactive: 0.025	inactive: -0.013	inactive: 0.01	inactive: 0.004	inactive: -0.198	inactive: 0.003	inactive: -0.007	inactive: -0.04	inactive: -0.032	inactive: 0.004	inactive: -0.032	inactive: -0.047	inactive: 0.006	inactive: -0.045	inactive: 0.007	inactive: 0.005	inactive: -0.011	inactive: 0.053
TSNAX (UniProt Q99598)	inactive: 0.008	inactive: 0.06	inactive: -0.008	inactive: -0.002	inactive: 0	inactive: 0.002	inactive: -0.012	inactive: 0.005	inactive: 0.021	inactive: -0.005	inactive: -0.011	inactive: 0	inactive: 0.018	inactive: 0.003	inactive: 0.019	inactive: 0.017	inactive: -0.019	inactive: 0.017	inactive: 0.036	inactive: -0.014

Limited to log2 fold change (tozasertib) and log2 fold change (alvocidib) (2 entries from above):

| Target | log2 fold change (tozasertib) | log2 fold change (alvocidib) |
| --- | --- | --- |
| TRMT12 (UniProt Q53H54) | inactive: -0.021 | inactive: -0.022 |
| TRAPPC4 (UniProt Q9Y296) | inactive: 0.044 | inactive: 0.007 |
